# Test results taken from the supplement of paper PMC8728848.
# Some of the results follow.
# B1: PX14343F-bfa-562-20-562 (Bacteroides fragilis) (protein)
# chain: CDDFLDSFPQDTVTNENFWKSKEDADKVLVDIYASLLPKDAIFFDEAMSDNAYLVWDWWGGAQQVANGSYTTSGEIPTNRWNGSYEVIRKCWFLLEGIEKIEDISEQDKNKIIGETYFMLAYNYYVLTSYFGDVPLVTKTLAIPESKQLVRTPKAEVVDYAINKLKEAAVMLEGLSQEKGRVTADACRFLIARMYLYNGDYSNVLETVKLLEGKYQLYREGDTPYEDLFSGVAENSCEVILSVVCDKRVGEIYTSHGGNGIMLLKGITGEDPYRGVTPSGSLVDAYPMADGRLIHEAGSSYDPKKPYEGRDPRFYQSIVYPTGQIKYLDVETGTVKERLYDPEDPTTVPEHQYNYSQPSATGYMWNKYIDYSVYAMNSVWDCTNDIIVFRYADVLLMKAEALLQTKGESAKEEVCNLIDQLRDRCSCGRVHRENYNSKDELMELLKNERRIELANEGLRYMDLIRWKDAEKNTIVTGVGLTGQMYGAYMRKDGVGKDDKTVDVDNTPRRYIETRYFNASKGYLFPIPQKERDLNPNLTQNPNW
# What was measured:
# Assay in all cases: glycan array binding signal (z-score within array); higher = stronger binding
# Details in all cases: glycan notation: IUPAC condensed, linker removed
# Fuc(a1-3)GlcNAc = target: Fuc(a1-3)GlcNAc
# Method in brief: (§1)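 Glycan array data were curated from 3228 arrays in the Consortium for Functional Glycomics database and kept only where the protein sequence was available. Glycan names were converted to IUPAC-condensed notation, and columns mapping to the same glycan were averaged. The binding signal is a within-array Z-score, averaged across arrays of the same protein sequence at different concentrations or buffers and across linkers. Negative Z-scores can be read as non-binding.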
# [1] = target: Fuc(a1-3)[Gal(b1-4)]Glc6S
# Method in brief: as §1
# [2] = target: Fuc(a1-3)[Gal(b1-4)]GlcNAc
# Method in brief: as §1
# [3] = target: Fuc(a1-3)[Gal(b1-4)]GlcNAc(b1-2)Man
# Method in brief: as §1
# [4] = target: Fuc(a1-3)[Gal(b1-4)]GlcNAc(b1-2)Man(a1-3)[Fuc(a1-3)[Gal(b1-4)]GlcNAc(b1-2)Man(a1-6)]Man(b1-4)GlcNAc(b1-4)GlcNAc
# Method in brief: as §1
# [5] = target: Fuc(a1-3)[Gal(b1-4)]GlcNAc(b1-2)Man(a1-3)[Fuc(a1-3)[Gal(b1-4)]GlcNAc(b1-2)Man(a1-6)]Man(b1-4)GlcNAc(b1-4)[Fuc(a1-6)]GlcNAc
# Method in brief: as §1
# [6] = target: Fuc(a1-3)[Gal(b1-4)]GlcNAc(b1-3)Gal(b1-3)[Fuc(a1-4)]GlcNAc
# Method in brief: as §1
# [7] = target: Fuc(a1-3)[Gal(b1-4)]GlcNAc(b1-3)Gal(b1-4)[Fuc(a1-3)]GlcNAc
# Method in brief: as §1
# [8] = target: Fuc(a1-3)[Gal(b1-4)]GlcNAc(b1-3)Gal(b1-4)[Fuc(a1-3)]GlcNAc(b1-3)Gal(b1-4)[Fuc(a1-3)]GlcNAc
# Method in brief: as §1
# [9] = target: Fuc(a1-3)[Gal(b1-4)]GlcNAc(b1-3)GalNAc
# Method in brief: as §1
# [10] = target: Fuc(a1-3)[Gal(b1-4)]GlcNAc(b1-6)GalNAc
# Method in brief: as §1
# [11] = target: Fuc(a1-3)[Gal(b1-4)]GlcNAc(b1-6)[Gal(b1-3)GlcNAc(b1-3)]Gal(b1-4)Glc
# Method in brief: as §1
# [12] = target: Fuc(a1-3)[Gal(b1-4)]GlcNAc6S
# Method in brief: as §1
# [13] = target: Fuc(a1-3)[Gal3S(b1-4)]Glc
# Method in brief: as §1
# [14] = target: Fuc(a1-3)[Gal3S(b1-4)]GlcNAc
# Method in brief: as §1
# [15] = target: Fuc(a1-3)[Gal3S(b1-4)]GlcNAc6S
# Method in brief: as §1
# [16] = target: Fuc(a1-3)[GalNAc(b1-4)]GlcNAc
# Method in brief: as §1
# [17] = target: Fuc(a1-3)[GalNAc(b1-4)]GlcNAc6S
# Method in brief: as §1
# Fuc(a1-4)GlcNAc = target: Fuc(a1-4)GlcNAc
# Method in brief: as §1
# Fuc(b1-3)GlcNAc = target: Fuc(b1-3)GlcNAc
# Method in brief: as §1
# Gal(a1-2)Gal = target: Gal(a1-2)Gal
# Method in brief: as §1
# Gal(a1-3)Gal = target: Gal(a1-3)Gal
# Method in brief: as §1
# Gal(a1-3)Gal(b1-3)GlcNAc = target: Gal(a1-3)Gal(b1-3)GlcNAc
# Method in brief: as §1
# [18] = target: Gal(a1-3)Gal(b1-3)GlcNAc(b1-2)Man
# Method in brief: as §1
# [19] = target: Gal(a1-3)Gal(b1-3)GlcNAc(b1-2)Man(a1-3)[Gal(a1-3)Gal(b1-3)GlcNAc(b1-2)Man(a1-6)]Man(b1-4)GlcNAc(b1-4)GlcNAc
# Method in brief: as §1
# [20] = target: Gal(a1-3)Gal(b1-3)GlcNAc(b1-3)GalNAc
# Method in brief: as §1
# [21] = target: Gal(a1-3)Gal(b1-3)GlcNAc(b1-6)GalNAc
# Method in brief: as §1
# [22] = target: Gal(a1-3)Gal(b1-3)[Fuc(a1-4)]GlcNAc(b1-2)Man(a1-3)[Gal(a1-3)Gal(b1-3)[Fuc(a1-4)]GlcNAc(b1-2)Man(a1-6)]Man(b1-4)GlcNAc(b1-4)GlcNAc
# Method in brief: as §1
# Gal(a1-3)Gal(b1-4)Glc = target: Gal(a1-3)Gal(b1-4)Glc
# Method in brief: as §1
# Gal(a1-3)Gal(b1-4)GlcNAc = target: Gal(a1-3)Gal(b1-4)GlcNAc
# Method in brief: as §1
# [23] = target: Gal(a1-3)Gal(b1-4)GlcNAc(b1-2)Man
# Method in brief: as §1
# [24] = target: Gal(a1-3)Gal(b1-4)GlcNAc(b1-2)Man(a1-3)[Gal(a1-3)Gal(b1-4)GlcNAc(b1-2)Man(a1-6)]Man(b1-4)GlcNAc(b1-4)GlcNAc
# Method in brief: as §1
# [25] = target: Gal(a1-3)Gal(b1-4)GlcNAc(b1-3)GalNAc
# Method in brief: as §1
# [26] = target: Gal(a1-3)Gal(b1-4)GlcNAc(b1-6)GalNAc
# Method in brief: as §1
# [27] = target: Gal(a1-3)Gal(b1-4)[Fuc(a1-3)]GlcNAc
# Method in brief: as §1
# [28] = target: Gal(a1-3)Gal(b1-4)[Fuc(a1-3)]GlcNAc(b1-2)Man(a1-3)[Gal(a1-3)Gal(b1-4)[Fuc(a1-3)]GlcNAc(b1-2)Man(a1-6)]Man(b1-4)GlcNAc(b1-4)GlcNAc
# Method in brief: as §1
# Gal(a1-3)GalNAc = target: Gal(a1-3)GalNAc
# Method in brief: as §1
# [29] = target: Gal(a1-3)[Gal(a1-4)]Gal(b1-4)GlcNAc
# Method in brief: as §1
# [30] = target: Gal(a1-4)Gal(b1-3)GlcNAc(b1-2)Man(a1-3)[Gal(a1-4)Gal(b1-3)GlcNAc(b1-2)Man(a1-6)]Man(b1-4)GlcNAc(b1-4)GlcNAc
# Method in brief: as §1
# Gal(a1-4)Gal(b1-4)Glc = target: Gal(a1-4)Gal(b1-4)Glc
# Method in brief: as §1
# Gal(a1-4)Gal(b1-4)GlcNAc = target: Gal(a1-4)Gal(b1-4)GlcNAc
# Method in brief: as §1
# [31] = target: Gal(a1-4)Gal(b1-4)GlcNAc(b1-2)Man(a1-3)[Gal(a1-4)Gal(b1-4)GlcNAc(b1-2)Man(a1-6)]Man(b1-4)GlcNAc(b1-4)GlcNAc
# Method in brief: as §1
# [32] = target: Gal(a1-4)Gal(b1-4)GlcNAc(b1-3)Gal(b1-4)Glc
# Method in brief: as §1
# Gal(a1-4)GlcNAc = target: Gal(a1-4)GlcNAc
# Method in brief: as §1
# Gal(a1-6)Glc = target: Gal(a1-6)Glc
# Method in brief: as §1
# Gal(b1-2)Gal = target: Gal(b1-2)Gal
# Method in brief: as §1
# Gal(b1-3)Gal = target: Gal(b1-3)Gal
# Method in brief: as §1
# Gal(b1-3)Gal(b1-4)GlcNAc = target: Gal(b1-3)Gal(b1-4)GlcNAc
# Method in brief: as §1
# Gal(b1-3)GalNAc = target: Gal(b1-3)GalNAc
# Method in brief: as §1
# [33] = target: Gal(b1-3)GalNAc(a1-3)[Fuc(a1-2)]Gal(b1-4)Glc
# Method in brief: as §1
# [34] = target: Gal(b1-3)GalNAc(a1-3)[Fuc(a1-2)]Gal(b1-4)GlcNAc
# Method in brief: as §1
# Gal(b1-3)GalNAc(b1-3)Gal = target: Gal(b1-3)GalNAc(b1-3)Gal
# Method in brief: as §1
# [35] = target: Gal(b1-3)GalNAc(b1-3)Gal(a1-4)Gal(b1-4)Glc
# Method in brief: as §1
# [36] = target: Gal(b1-3)GalNAc(b1-4)Gal(b1-4)Glc
# Method in brief: as §1
# [37] = target: Gal(b1-3)GalNAc(b1-4)[Neu5Ac(a2-3)]Gal(b1-4)Glc
# Method in brief: as §1
# Gal(b1-3)GlcNAc = target: Gal(b1-3)GlcNAc
# Method in brief: as §1
# [38] = target: Gal(b1-3)GlcNAc(a1-3)Gal(b1-4)GlcNAc
# Method in brief: as §1
# [39] = target: Gal(b1-3)GlcNAc(a1-6)Gal(b1-4)GlcNAc
# Method in brief: as §1
# Gal(b1-3)GlcNAc(b1-2)Man = target: Gal(b1-3)GlcNAc(b1-2)Man
# Method in brief: as §1
# [40] = target: Gal(b1-3)GlcNAc(b1-2)Man(a1-3)[Gal(b1-3)GlcNAc(b1-2)Man(a1-6)]Man(b1-4)GlcNAc(b1-4)GlcNAc
# Method in brief: as §1
binder,measurement,setting,value
B1,glycan array binding signal (z-score),Fuc(a1-3)GlcNAc,-0.159
same,glycan array binding signal (z-score),[1],-0.078
same,glycan array binding signal (z-score),[2],0.458
same,glycan array binding signal (z-score),[3],0.356
same,glycan array binding signal (z-score),[4],1.15
same,glycan array binding signal (z-score),[5],-0.568
same,glycan array binding signal (z-score),[6],-0.917
same,glycan array binding signal (z-score),[7],-0.249
same,glycan array binding signal (z-score),[8],-0.023
same,glycan array binding signal (z-score),[9],0.113
same,glycan array binding signal (z-score),[10],-0.242
same,glycan array binding signal (z-score),[11],0.493
same,glycan array binding signal (z-score),[12],-0.142
same,glycan array binding signal (z-score),[13],-0.368
same,glycan array binding signal (z-score),[14],0.011
same,glycan array binding signal (z-score),[15],-0.355
same,glycan array binding signal (z-score),[16],0.476
same,glycan array binding signal (z-score),[17],-0.676
same,glycan array binding signal (z-score),Fuc(a1-4)GlcNAc,-0.18
same,glycan array binding signal (z-score),Fuc(b1-3)GlcNAc,-0.725
same,glycan array binding signal (z-score),Gal(a1-2)Gal,0.192
same,glycan array binding signal (z-score),Gal(a1-3)Gal,-0.081
same,glycan array binding signal (z-score),Gal(a1-3)Gal(b1-3)GlcNAc,-0.521
same,glycan array binding signal (z-score),[18],0.587
same,glycan array binding signal (z-score),[19],0.857
same,glycan array binding signal (z-score),[20],-0.716
same,glycan array binding signal (z-score),[21],0.014
same,glycan array binding signal (z-score),[22],0.795
same,glycan array binding signal (z-score),Gal(a1-3)Gal(b1-4)Glc,0.151
same,glycan array binding signal (z-score),Gal(a1-3)Gal(b1-4)GlcNAc,0.337
same,glycan array binding signal (z-score),[23],0.106
same,glycan array binding signal (z-score),[24],0.153
same,glycan array binding signal (z-score),[25],0.157
same,glycan array binding signal (z-score),[26],-0.294
same,glycan array binding signal (z-score),[27],-0.135
same,glycan array binding signal (z-score),[28],1.13
same,glycan array binding signal (z-score),Gal(a1-3)GalNAc,0.387
same,glycan array binding signal (z-score),[29],3.69
same,glycan array binding signal (z-score),[30],0.16
same,glycan array binding signal (z-score),Gal(a1-4)Gal(b1-4)Glc,-1.36
same,glycan array binding signal (z-score),Gal(a1-4)Gal(b1-4)GlcNAc,-0.217
same,glycan array binding signal (z-score),[31],1.42
same,glycan array binding signal (z-score),[32],-0.481
same,glycan array binding signal (z-score),Gal(a1-4)GlcNAc,0.167
same,glycan array binding signal (z-score),Gal(a1-6)Glc,0.197
same,glycan array binding signal (z-score),Gal(b1-2)Gal,0.188
same,glycan array binding signal (z-score),Gal(b1-3)Gal,-0.31
same,glycan array binding signal (z-score),Gal(b1-3)Gal(b1-4)GlcNAc,-0.446
same,glycan array binding signal (z-score),Gal(b1-3)GalNAc,0.202
same,glycan array binding signal (z-score),[33],-0.723
same,glycan array binding signal (z-score),[34],0.008
same,glycan array binding signal (z-score),Gal(b1-3)GalNAc(b1-3)Gal,-0.278
same,glycan array binding signal (z-score),[35],1.02
same,glycan array binding signal (z-score),[36],-0.716
same,glycan array binding signal (z-score),[37],-0.477
same,glycan array binding signal (z-score),Gal(b1-3)GlcNAc,-0.481
same,glycan array binding signal (z-score),[38],-0.574
same,glycan array binding signal (z-score),[39],-0.363
same,glycan array binding signal (z-score),Gal(b1-3)GlcNAc(b1-2)Man,-0.636
same,glycan array binding signal (z-score),[40],-0.367

# Pulled one by one from above, 4 records:
binder,measurement,setting,value
B1,glycan array binding signal (z-score),Gal(a1-4)GlcNAc,0.167
same,glycan array binding signal (z-score),[28],1.13
same,glycan array binding signal (z-score),Fuc(a1-3)GlcNAc,-0.159
same,glycan array binding signal (z-score),[22],0.795
